Measured values reported in PubChem BioAssay AID1347156 (National Center for Advancing Translational Sciences (NCATS), 2019).
The inconclusive results got no clear call from the source; some entries with a clear call stand among them for comparison. A potency beside an inconclusive call is a rough fit, not a confirmed value. The source made the active and inactive calls. Calls follow the shape of the dose curve; as a rule, active = well fitted cell-killing curve with a large enough effect; inconclusive = small, poorly fitted or top-dose-only effect; inactive = flat fitted curve, though single readings scatter.

Experiment: DAPI mCherry counterscreen qHTS for Zika virus inhibitors; also: nearly all actives have a fitted effect of over 55% in size
Conditions: Vero cells, DAPI nuclear count cytotoxicity, imaging 48-72 h; series mostly up to 32.6 µM; activity change, negative = cell loss: at the top concentration
Excerpt: Assay Submitters (PI): Avindra Nath, Ph.D., National Institute of Neurological Disorders and Stroke (NINDS), Bethesda, MD Radhakrishnan Padmanabhan, Ph.D., Georgetown University (GU), Washington D.C. Zika Virus causes congenital defects, including microcephaly and is associated with Guillain-Barre syndrome, eningoencephalitis and myelitis in infected adult. […] Using a target-based approach, we hope to establish a screening paradigm to uncover novel, cell-active NS2B-NS3 protease (Zika Virus) specific inhibitors from NCATS' collection of small molecules using qHTS. […] Four assay panel was created to identify potential Zika Virus inhibitors. Namely, (1) GU unlinked NS2B-NS3 AMC tagged protease qHTS, (2) GU unlinked NS2B-NS3 Rhodamine tagged protease qHTS, (3) NINDS linked NS2B-NS3 AMC tagged protease qHTS, (4) NINDS linked NS2B-NS3 Rhodamine tagged protease qHTS. Active compounds were re-acquired and re-screened to confirm inhibition. Inhibitors were further screened against various confirmatory and counterscreens in dose response format. […] A DAPI (mCherry counterscreen) which determine Vero cell cytotoxicity was used to exclude false positive compounds. […] Early Translation Branch (ETB) National Center for Advancing Translational Sciences (NCATS), Rockville, MD National Institute of Health (NIH), Bethesda, Maryland
384 well ZIKV-mCherry & mCherry DAPI counterscreen: We have developed a new orthogonal imaging assay in 384-well plate format, which uses recombinant virus ZIKV-mCherry in Vero cells. Briefly, 30 microL of Vero cells derived from a green monkey cell line, were dispensed by Multidrop Dispenser into a clear solid bottom black 384 well plate (ultracarrier, Perkin Elmer LifeSciences) at a concentration of 5,000 cells per well. The plate was incubated overnight in a CO2 incubator at 37 degrees C. Compounds were delivered as a 126 nL DMSO solution by Kalypsys pintool transfer. Following compound transfer, 10 microL of ZIKV-mCherry was added at an MOI of 1 and incubated in a CO2 incubator for 48-72 hrs at 37 degrees C. After sufficient incubation of infected cells in test plates, 8 microL of 32% PFA was dispensed into assay plates to fix cells and incubated for 20 min at room temperature. Plates were washed 3 times with PBS using BioTek EL406 microplate washer/dispenser. After washing, 30 microL of PBS with 0.01% TX-100 containing Hoechst dye was dispensed into the each well of the plates for nuclear staining. 384-well plates were imaged on an automated, widefield high content imager (INCell 2200, GE Healthcare) using a 10x/0.45 NA lens and standard DAPI (nuclear stain) and mCherry (cy5) excitation and emission filters. The TIFFs were quantitated using the canned Multi Target Analysis protocol (GE Investigator Workstation software v3.7.2). Briefly, nuclei from the DAPI channel were identified using top hat segmentation and a sensitivity setting of 96 and minimum size area of 35 microm2. A recombinant Zika viral infection was monitored in the Cy5 channel (cells) using a 2 microm collar dilation from the nuclear bitmap. mCherry objects with an average nuclear RFU intensity above 450 (3 stdev above mean negative control wells) were considered "mcherry positive" and data was analyzed by percent infection rate.
% is scaled to controls: 0 for no effect and ±100 for the full control effect; potency is read from the fitted curve at half-maximal effect.

SMILES	Potency	activity change, negative = cell loss
O=C(O)C(=O)c1cn(Cc2ccccc2)c2ccc(-c3ccc(OC(F)(F)F)cc3)cc12	active: 28.2 µM	
O=C1OC(c2ccc(O)c(S(=O)(=O)O)c2)(c2ccc(O)c(S(=O)(=O)O)c2)c2c(Br)c(Br)c(Br)c(Br)c21		inactive: -3.73% [at 32.6 µM]
CC(C)=CCC[C@]1(C)C=Cc2c(O)c3c(c(CC=C(C)C)c2O1)O[C@]12C(=C[C@@H]4CC1C(C)(C)O[C@@]2(C/C=C(/C)C(=O)O)C4=O)C3=O	active: 1.12 µM [infected with Zika reporter virus, MOI 1]	
O=c1c(O)c(-c2ccc(O)c(O)c2)oc2c(O)c(O)cc(O)c12		inactive: -7.13%
O=C(O)c1cc(Oc2ccc(C(F)(F)F)cc2Cl)ccc1[N+](=O)[O-]		inactive: -7.31%
CN(C)[C@@H]1C(=O)C(C(N)=O)=C(O)[C@@]2(O)C(=O)C3=C(O)c4c(O)ccc(Cl)c4[C@@](C)(O)[C@H]3C[C@@H]12	inconclusive: 6.31 µM [cytotoxic, full curve] [infected with Zika reporter virus, MOI 1]	
C[C@]12CC[C@@H]3c4ccc(OC(=O)N(CCCl)CCCl)cc4CC[C@H]3[C@@H]1CC[C@@H]2O	inconclusive: 39.8 µM [cytotoxic, partial curve, poor fit]	
O=C(Nc1ccc(Br)cc1)c1cc(Br)cc(Br)c1O	active: 8.91 µM	
CCCCCOc1cc2c(cc1-c1cc(/C=C/C(=O)O)ccc1O)C(C)(C)CCC2(C)C	active: 15.8 µM	

No new results follow: entries from further up.
SMILES	Potency	activity change, negative = cell loss
O=C(O)C(=O)c1cn(Cc2ccccc2)c2ccc(-c3ccc(OC(F)(F)F)cc3)cc12	active: 28.2 µM	
O=C1OC(c2ccc(O)c(S(=O)(=O)O)c2)(c2ccc(O)c(S(=O)(=O)O)c2)c2c(Br)c(Br)c(Br)c(Br)c21		inactive: -3.73% [at 32.6 µM]
